According to paper PMC9360619:
No constants are given. Whether binding was seen depends on the method and setting. Binding seen in cells or lysates may run through a third protein. Some results given as binding are weak or reduced against the parent protein; the word gives no strength.

Protein sequences, listed by entry. Tags and fused reporters are not part of them. Residues count along the entry.
UniProt P08581, residues 25-1390: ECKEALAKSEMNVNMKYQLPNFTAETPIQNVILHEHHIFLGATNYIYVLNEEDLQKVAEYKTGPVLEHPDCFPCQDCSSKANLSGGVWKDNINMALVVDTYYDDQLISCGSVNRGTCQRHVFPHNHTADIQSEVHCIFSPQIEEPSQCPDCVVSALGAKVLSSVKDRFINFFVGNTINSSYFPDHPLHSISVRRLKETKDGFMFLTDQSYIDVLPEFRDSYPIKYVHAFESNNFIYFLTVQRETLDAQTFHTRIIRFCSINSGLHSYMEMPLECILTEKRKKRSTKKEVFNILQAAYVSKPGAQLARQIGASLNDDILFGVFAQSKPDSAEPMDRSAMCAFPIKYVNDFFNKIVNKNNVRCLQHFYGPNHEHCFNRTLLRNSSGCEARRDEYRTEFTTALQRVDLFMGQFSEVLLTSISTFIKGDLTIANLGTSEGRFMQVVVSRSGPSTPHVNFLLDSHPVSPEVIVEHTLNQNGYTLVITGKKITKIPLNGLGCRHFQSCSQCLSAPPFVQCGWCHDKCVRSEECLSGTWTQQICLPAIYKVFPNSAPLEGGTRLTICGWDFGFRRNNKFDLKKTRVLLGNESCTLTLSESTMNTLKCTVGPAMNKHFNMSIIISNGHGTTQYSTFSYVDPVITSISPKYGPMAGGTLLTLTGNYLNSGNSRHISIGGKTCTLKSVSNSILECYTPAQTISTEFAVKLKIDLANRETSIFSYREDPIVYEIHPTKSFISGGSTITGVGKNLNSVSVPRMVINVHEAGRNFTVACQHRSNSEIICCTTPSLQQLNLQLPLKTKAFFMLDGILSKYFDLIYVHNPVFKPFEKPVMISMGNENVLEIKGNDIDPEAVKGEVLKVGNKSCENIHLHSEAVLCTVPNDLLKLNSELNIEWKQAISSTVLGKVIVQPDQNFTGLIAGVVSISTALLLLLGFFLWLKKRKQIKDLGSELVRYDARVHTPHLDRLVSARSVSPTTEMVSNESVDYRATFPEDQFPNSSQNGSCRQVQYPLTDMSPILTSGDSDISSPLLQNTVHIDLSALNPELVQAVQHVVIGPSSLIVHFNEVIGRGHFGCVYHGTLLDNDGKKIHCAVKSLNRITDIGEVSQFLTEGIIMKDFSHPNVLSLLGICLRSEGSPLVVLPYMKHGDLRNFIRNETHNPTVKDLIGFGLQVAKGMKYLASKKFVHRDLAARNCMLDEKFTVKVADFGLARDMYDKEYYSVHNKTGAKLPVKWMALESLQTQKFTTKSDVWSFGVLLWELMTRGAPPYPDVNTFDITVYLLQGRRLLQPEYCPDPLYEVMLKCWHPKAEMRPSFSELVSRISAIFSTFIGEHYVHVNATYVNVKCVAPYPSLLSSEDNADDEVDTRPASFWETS

Target: c-Met (human (endogenous in U87 and HUVEC)) (UniProt P08581)
Test: co-IP; lysates in RIPA buffer with protease inhibitors, precleared with protein A/G agarose, anti-c-Met antibody-conjugated beads overnight at 4°C, blot for p62; U87 cells and HUVECs with or without paeoniflorin (10 μM in U87, 20 μM in HUVECs, 24 h); also U87 cells transfected with HA-Ub (WT), HA-UbK48, HA-UbK63 or HA-UbKO and treated with 20 μM paeoniflorin

Q: How did the binding turn out when p62 (from UniProt Q13501 1-440) was run?
A: Its binding is “binds”.
